Measurements reported in the supplement of paper PMC10849652.
Some of the results follow.

The chains behind the UniProt entries cited, without tags or fusion partners. Where a name states a change or a piece, a line headed by the entry shows the natural chain unless it says otherwise.
UniProt O14950, whole entry, looked up: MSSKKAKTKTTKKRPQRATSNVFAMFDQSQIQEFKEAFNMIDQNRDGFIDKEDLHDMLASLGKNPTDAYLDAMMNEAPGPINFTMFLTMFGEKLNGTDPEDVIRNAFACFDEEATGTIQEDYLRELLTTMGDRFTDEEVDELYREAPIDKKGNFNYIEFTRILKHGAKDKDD
UniProt P35580, whole entry, looked up: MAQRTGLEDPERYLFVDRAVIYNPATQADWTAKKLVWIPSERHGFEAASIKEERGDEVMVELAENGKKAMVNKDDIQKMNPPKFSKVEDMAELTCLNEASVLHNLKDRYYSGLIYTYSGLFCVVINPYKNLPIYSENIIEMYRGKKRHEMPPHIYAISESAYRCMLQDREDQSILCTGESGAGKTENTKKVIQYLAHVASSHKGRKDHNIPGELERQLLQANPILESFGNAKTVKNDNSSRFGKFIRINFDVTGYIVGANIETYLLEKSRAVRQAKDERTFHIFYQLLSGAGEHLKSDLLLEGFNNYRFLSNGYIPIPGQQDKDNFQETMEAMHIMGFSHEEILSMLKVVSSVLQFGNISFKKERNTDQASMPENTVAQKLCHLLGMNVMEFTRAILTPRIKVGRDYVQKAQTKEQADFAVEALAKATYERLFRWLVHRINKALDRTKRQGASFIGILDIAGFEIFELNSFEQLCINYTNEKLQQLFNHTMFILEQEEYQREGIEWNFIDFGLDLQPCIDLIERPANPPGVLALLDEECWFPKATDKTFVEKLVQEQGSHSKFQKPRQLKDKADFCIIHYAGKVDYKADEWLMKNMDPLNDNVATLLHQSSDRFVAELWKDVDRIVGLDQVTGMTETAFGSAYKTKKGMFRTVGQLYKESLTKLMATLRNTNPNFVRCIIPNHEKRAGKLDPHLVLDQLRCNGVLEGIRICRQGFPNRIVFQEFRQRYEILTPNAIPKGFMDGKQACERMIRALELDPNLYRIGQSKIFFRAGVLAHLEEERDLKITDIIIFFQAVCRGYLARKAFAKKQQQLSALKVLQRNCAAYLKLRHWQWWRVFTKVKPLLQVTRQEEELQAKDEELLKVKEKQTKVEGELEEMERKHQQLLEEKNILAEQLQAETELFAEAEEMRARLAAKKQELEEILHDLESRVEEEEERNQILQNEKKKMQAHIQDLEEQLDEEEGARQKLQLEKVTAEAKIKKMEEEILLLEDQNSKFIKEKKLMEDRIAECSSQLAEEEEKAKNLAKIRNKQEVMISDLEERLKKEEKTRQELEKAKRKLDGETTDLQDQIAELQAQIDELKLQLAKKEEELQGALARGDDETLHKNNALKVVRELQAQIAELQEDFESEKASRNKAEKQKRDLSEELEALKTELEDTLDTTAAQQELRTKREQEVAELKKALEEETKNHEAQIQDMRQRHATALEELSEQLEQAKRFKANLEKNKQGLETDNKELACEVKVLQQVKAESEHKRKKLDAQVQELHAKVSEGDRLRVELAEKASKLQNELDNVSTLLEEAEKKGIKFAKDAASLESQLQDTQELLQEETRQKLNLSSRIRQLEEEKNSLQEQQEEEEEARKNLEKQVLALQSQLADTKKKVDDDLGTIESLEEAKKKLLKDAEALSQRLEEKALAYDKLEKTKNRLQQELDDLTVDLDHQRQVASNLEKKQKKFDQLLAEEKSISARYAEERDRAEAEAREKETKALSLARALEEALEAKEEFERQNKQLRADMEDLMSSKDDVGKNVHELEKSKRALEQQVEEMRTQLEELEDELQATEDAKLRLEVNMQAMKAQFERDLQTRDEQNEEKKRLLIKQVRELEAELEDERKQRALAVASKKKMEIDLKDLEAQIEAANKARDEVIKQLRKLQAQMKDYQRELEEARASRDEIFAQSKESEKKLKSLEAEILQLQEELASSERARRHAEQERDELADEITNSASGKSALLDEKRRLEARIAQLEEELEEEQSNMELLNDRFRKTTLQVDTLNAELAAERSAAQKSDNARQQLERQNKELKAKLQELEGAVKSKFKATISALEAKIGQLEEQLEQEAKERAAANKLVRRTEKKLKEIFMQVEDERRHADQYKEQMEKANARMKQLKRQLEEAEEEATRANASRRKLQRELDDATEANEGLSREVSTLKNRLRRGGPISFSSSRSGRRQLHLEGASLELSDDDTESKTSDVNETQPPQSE
UniProt Q6P444: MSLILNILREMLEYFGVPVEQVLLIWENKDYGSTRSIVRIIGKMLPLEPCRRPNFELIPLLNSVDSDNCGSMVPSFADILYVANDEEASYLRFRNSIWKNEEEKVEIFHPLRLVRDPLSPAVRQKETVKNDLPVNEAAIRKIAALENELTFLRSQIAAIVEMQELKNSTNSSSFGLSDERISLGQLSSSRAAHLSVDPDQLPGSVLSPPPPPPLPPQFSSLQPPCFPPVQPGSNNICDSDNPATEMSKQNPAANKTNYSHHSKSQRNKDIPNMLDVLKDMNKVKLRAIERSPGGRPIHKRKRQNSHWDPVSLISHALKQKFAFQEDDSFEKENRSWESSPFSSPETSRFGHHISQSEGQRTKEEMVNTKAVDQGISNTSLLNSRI
UniProt P49914: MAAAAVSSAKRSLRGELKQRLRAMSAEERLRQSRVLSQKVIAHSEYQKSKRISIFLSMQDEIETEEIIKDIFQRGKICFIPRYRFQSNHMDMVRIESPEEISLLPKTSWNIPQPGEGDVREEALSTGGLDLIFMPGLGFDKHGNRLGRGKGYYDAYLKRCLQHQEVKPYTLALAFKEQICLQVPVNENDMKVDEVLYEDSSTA
UniProt Q96E11: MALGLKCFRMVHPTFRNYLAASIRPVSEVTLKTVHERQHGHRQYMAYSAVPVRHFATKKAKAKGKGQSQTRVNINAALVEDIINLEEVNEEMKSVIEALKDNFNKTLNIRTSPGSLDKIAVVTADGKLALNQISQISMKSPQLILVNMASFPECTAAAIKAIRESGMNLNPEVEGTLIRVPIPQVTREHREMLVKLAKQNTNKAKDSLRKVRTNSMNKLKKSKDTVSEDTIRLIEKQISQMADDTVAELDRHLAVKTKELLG
UniProt P00846: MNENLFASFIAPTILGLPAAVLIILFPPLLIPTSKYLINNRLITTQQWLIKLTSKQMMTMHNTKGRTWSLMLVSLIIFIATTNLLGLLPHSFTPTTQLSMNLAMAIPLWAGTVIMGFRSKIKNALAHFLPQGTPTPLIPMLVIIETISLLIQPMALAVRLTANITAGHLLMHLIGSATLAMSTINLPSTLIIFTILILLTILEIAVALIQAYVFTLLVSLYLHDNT
UniProt P03905, whole entry, looked up: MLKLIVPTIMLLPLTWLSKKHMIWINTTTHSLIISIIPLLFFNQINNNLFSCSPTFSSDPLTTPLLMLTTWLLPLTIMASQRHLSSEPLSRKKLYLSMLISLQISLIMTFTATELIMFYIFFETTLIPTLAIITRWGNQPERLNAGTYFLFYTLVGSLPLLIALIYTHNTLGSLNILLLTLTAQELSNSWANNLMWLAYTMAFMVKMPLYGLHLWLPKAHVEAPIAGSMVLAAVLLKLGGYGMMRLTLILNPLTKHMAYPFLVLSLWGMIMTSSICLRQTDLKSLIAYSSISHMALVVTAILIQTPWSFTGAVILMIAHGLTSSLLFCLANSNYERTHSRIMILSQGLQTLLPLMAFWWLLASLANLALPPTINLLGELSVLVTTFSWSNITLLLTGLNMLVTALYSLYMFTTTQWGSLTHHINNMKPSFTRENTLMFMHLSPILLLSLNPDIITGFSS

Columns and labels:
Test in all cases: log2 fold change, soluble protein after heating vs DMSO (PISA); higher = thermal stabilisation; K562 cells, 10 uM, 30 min; active = over 0.2 and 3.5 SD of the protein, either way, in both replicates (recomputed)
[1] = compound: CC1=C(C=C(C=C1)NC(=O)C2=CC(=CC=C2)C(C)(C)C#N)NC3=CC4=C(C=C3)N=CN(C4=O)C
Procedure, shortened: (§1)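 K562 cells (2×10^6 cells/mL) were treated with 10 μM compound for 30 min, and aliquots were heated for 3 min over 48°C-58°C. Pooled aliquots were extracted in PBS with 0.5% NP-40 at 4°C, and the supernatant after 21,000xg for 90 min was measured by TMTpro 16plex LC-MS/MS with channel sums equalised. Reported thermal stability, relative to control samples and from duplicates, is a log2 fold change.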

[2] = compound: CC1=C(C=C(C=C1)NC(=O)C2=CC(=CC=C2)N(C)C)NC(=O)C3=CC=C(C=C3)O
Procedure, shortened: as §1

[3] = compound: CC1=CC=C(C=C1)SC2=C3C=C(SC3=CN=C2)C(=O)N
Procedure, shortened: as §1

[4] = compound: CC1=NC(=CC=C1)C2=C(N=C(N2)C(C)(C)C)C3=CC4=NC=CN=C4C=C3
Procedure, shortened: as §1

Nexturastat A = compound: CCCCN(Cc1ccc(C(=O)NO)cc1)C(=O)Nc1ccccc1 [Nexturastat A]
Procedure, shortened: as §1

vemurafenib = compound: CCCS(=O)(=O)Nc1ccc(F)c(C(=O)c2c[nH]c3ncc(-c4ccc(Cl)cc4)cc23)c1F [vemurafenib]
Procedure, shortened: as §1

[5] = compound: CCCS(=O)(=O)Nc1ccc(F)c(C(=O)c2c[nH]c3ncc(Cl)cc23)c1F
Procedure, shortened: as §1

[6] = compound: CCCc1cc(C)[nH]c(=O)c1CNC(=O)c1cc(-c2ccnc(N3CCN(C)CC3)c2)cc2c1cnn2C(C)C
Procedure, shortened: as §1

givinostat = compound: CCN(CC)Cc1ccc2cc(COC(=O)Nc3ccc(C(=O)NO)cc3)ccc2c1 [givinostat]
Procedure, shortened: as §1

barasertib = compound: CCN(CCCOc1ccc2c(Nc3cc(CC(=O)Nc4cccc(F)c4)[nH]n3)ncnc2c1)CCOP(=O)(O)O [barasertib]
Procedure, shortened: as §1

[7] = compound: CC[C@@H]1C(=O)N(C)c2cnc(Nc3ccc(C(=O)NC4CCN(C)CC4)cc3OC)nc2N1C1CCCC1
Procedure, shortened: as §1

volasertib = compound: CC[C@@H]1C(=O)N(C)c2cnc(Nc3ccc(C(=O)N[C@H]4CC[C@H](N5CCN(CC6CC6)CC5)CC4)cc3OC)nc2N1C(C)C [volasertib]
Procedure, shortened: as §1

[8] = compound: CC[C@H](C)N1C=C(C2=C(C=C(C=C21)C3=CN=C(C=C3)N4CCNCC4)C(=O)NCC5=C(C=C(NC5=O)C)C)C
Procedure, shortened: as §1

epoxomicin = compound: CC[C@H](C)[C@@H](C(=O)N[C@@H]([C@@H](C)O)C(=O)N[C@@H](CC(C)C)C(=O)[C@]1(CO1)C)NC(=O)[C@H]([C@@H](C)CC)N(C)C(=O)C [epoxomicin]
Procedure, shortened: as §1

[9] = compound: CCn1cc(-c2ccnc3[nH]c(-c4cccc(CN(C)C)c4)cc23)c(-c2ccc(NC(=O)N(C)C)cc2)n1
Procedure, shortened: as §1

[10] = compound: CN(C)CC(=O)Nc1ccc2[nH]c(=O)c3ccccc3c2c1
Procedure, shortened: as §1

[11] = compound: CN1C2=C(C3=C1C(=O)N(N=C3)CC4=CC(=CC=C4)N)SC(=C2)S(=O)C
Procedure, shortened: as §1

[12] = compound: CN1CCC(CNc2ccc3ncc(-c4cccc(OC(F)(F)F)c4)n3n2)CC1
Procedure, shortened: as §1

[13] = compound: CCn1c(C(=O)N(C2CC2)C2CC2)cc2c3c(ncn3C)c(Nc3cc(C)n(C)n3)nc21
Procedure, shortened: as §1

rosiglitazone = compound: CN(CCOC1=CC=C(C=C1)C[C@H]2C(=O)NC(=O)S2)C3=CC=CC=N3 (racemic) [rosiglitazone]
Procedure, shortened: as §1

Measured: log2 fold change

MYL12B (UniProt O14950)
inactive: [1] 0.005 | [2] -0.015 | [3] 0.014 | [4] 0.007 | Nexturastat A -0.005 | vemurafenib 0.039 | [5] 0.054 | [6] 0.136 | givinostat -0.023 | barasertib 0.014 | [7] -0.053 | volasertib -0.085 | [8] 0.06 | epoxomicin 0.052 | [9] -0.064 | [10] 0.031 | [11] -0.078 | [12] 0.01

MYH10 isoform 3 (UniProt P35580)
active: volasertib -0.216
inactive: [1] 0.009 | [2] -0.033 | [3] 0.019 | [4] 0.07 | Nexturastat A -0.05 | vemurafenib 0.028 | [5] 0.05 | [6] 0 | givinostat -0.003 | barasertib 0.038 | [7] -0.082 | [8] 0.026 | epoxomicin 0.094 | [9] -0.036 | [10] 0.024 | [11] -0.064 | [12] -0.077

MTFR2 (UniProt Q6P444)
inactive: [1] -0.076 | [2] -0.075 | [3] 0.196 | [4] 0.037 | Nexturastat A -0.036 | vemurafenib -0.026 | [5] 0.165 | [6] -0.341 | givinostat 0.038 | barasertib 0.029 | [7] -0.05 | volasertib -0.083 | [8] 0.053 | epoxomicin 0.078 | [13] -0.039 | [10] 0.006 | rosiglitazone 0.164 | [11] 0.06

MTHFS (UniProt P49914)
active: volasertib 0.236
inactive: [1] 0.047 | [2] -0.054 | [3] -0.01 | [4] 0.047 | Nexturastat A -0.005 | vemurafenib -0.017 | [5] 0.01 | [6] -0.041 | givinostat -0.063 | barasertib 0.009 | [7] 0.082 | [8] 0.034 | epoxomicin 0.11 | [9] 0.02 | [10] 0.034 | [11] -0.022 | [12] -0.019

MRPS35 (UniProt P82673)
inactive: [1] -0.016 | [2] -0.013 | [3] -0.04 | [4] -0.007 | Nexturastat A 0.167 | vemurafenib -0.063 | [5] -0.022 | [6] 0.149 | givinostat 0.017 | barasertib -0.034 | [7] 0.064 | volasertib 0.014 | [8] 0.029 | epoxomicin 0.048 | [9] -0.076 | [10] 0.027 | [11] -0.013 | [12] -0.007

Two records picked at random from those above, as already listed:
MTHFS (UniProt P49914)
active: volasertib 0.236
inactive: [1] 0.047 | [2] -0.054 | [3] -0.01 | [4] 0.047 | Nexturastat A -0.005 | vemurafenib -0.017 | [5] 0.01 | [6] -0.041 | givinostat -0.063 | barasertib 0.009 | [7] 0.082 | [8] 0.034 | epoxomicin 0.11 | [9] 0.02 | [10] 0.034 | [11] -0.022 | [12] -0.019

MRPS35 (UniProt P82673)
inactive: [1] -0.016 | [2] -0.013 | [3] -0.04 | [4] -0.007 | Nexturastat A 0.167 | vemurafenib -0.063 | [5] -0.022 | [6] 0.149 | givinostat 0.017 | barasertib -0.034 | [7] 0.064 | volasertib 0.014 | [8] 0.029 | epoxomicin 0.048 | [9] -0.076 | [10] 0.027 | [11] -0.013 | [12] -0.007

Carrying on.

MRRF (UniProt Q96E11)
inactive: [1] 0.024 | [2] -0.06 | [3] 0.055 | [4] 0.057 | Nexturastat A -0.088 | vemurafenib -0.012 | [5] 0.042 | [6] 0.005 | givinostat 0.007 | barasertib 0.046 | [7] 0.015 | volasertib -0.087 | [8] 0.07 | epoxomicin 0.04 | [13] -0.037 | [9] -0.03 | [10] 0.01 | rosiglitazone 0.036 | [11] 0.036 | [12] 0.101

MTOR (UniProt P42345)
inactive: [1] -0.033 | [2] -0.05 | [3] 0.02 | [4] -0.006 | Nexturastat A 0.009 | vemurafenib 0.024 | [5] 0.071 | [6] 0.008 | givinostat 0.038 | barasertib 0.059 | [7] -0.131 | [8] 0.04 | epoxomicin -0.021 | [9] -0.073 | [10] 0.036 | [11] 0.017
active: volasertib -0.305 | [12] -0.286

MT-ATP6 (UniProt P00846)
inactive: [1] -0.009 | [2] 0.041 | [3] 0.008 | [4] 0.026 | Nexturastat A -0.133 | vemurafenib -0.159 | [5] -0.043 | [6] -0.014 | givinostat -0.074 | barasertib 0.567 | [7] 0.043 | volasertib -0.091 | [8] -0.057 | epoxomicin 0.105 | [9] -0.152 | [10] -0.095 | [11] -0.239 | [12] -0.16

MRPS6 (UniProt P82932)
inactive: [1] 0.081 | [2] -0.052 | [3] 0.006 | [4] 0.128 | Nexturastat A 0.076 | vemurafenib 0.1 | [5] 0.059 | [6] 0.062 | givinostat 0.037 | barasertib -0.017 | [7] -0.015 | volasertib -0.045 | [8] 0.03 | epoxomicin -0.012 | [9] -0.067 | [10] 0.09 | [11] -0.021 | [12] 0.027

MRPS12 (UniProt O15235)
inactive: [1] -0.034 | [2] -0.094 | [3] 0.054 | [4] -0.069 | Nexturastat A 0.201 | vemurafenib -0.146 | [5] 0.032 | [6] -0.002 | givinostat 0.077 | barasertib -0.054 | [7] -0.043 | volasertib -0.024 | [8] 0.077 | epoxomicin -0.001 | [9] -0.072 | [10] -0.103 | [11] 0.091 | [12] -0.014

MRPS10 (UniProt P82664)
inactive: [1] 0.018 | [2] 0 | [3] 0 | [4] -0.03 | Nexturastat A 0.097 | vemurafenib -0.002 | [5] 0.006 | [6] -0.046 | givinostat 0.063 | barasertib -0.051 | [7] 0.02 | volasertib 0.027 | [8] 0.088 | epoxomicin -0.022 | [9] 0.045 | [10] 0.085 | [11] 0.066 | [12] 0.068

MRPS31 (UniProt Q92665)
inactive: [1] -0.015 | [2] -0.012 | [3] -0.041 | [4] -0.017 | Nexturastat A 0.111 | vemurafenib -0.041 | [5] 0.054 | [6] -0.012 | givinostat 0.009 | barasertib -0.007 | [7] 0.056 | volasertib 0 | [8] 0.036 | epoxomicin -0.015 | [9] 0.014 | [10] -0.054 | [11] 0 | [12] 0.052

MRPS33 (UniProt Q9Y291)
inactive: [1] 0.075 | [2] -0.078 | [3] -0.025 | [4] -0.004 | Nexturastat A 0.098 | vemurafenib 0.023 | [5] 0.073 | [6] -0.042 | givinostat 0.043 | barasertib -0.015 | [7] 0.016 | volasertib 0.025 | [8] 0.057 | epoxomicin -0.012 | [9] -0.011 | [10] -0.01 | [11] -0.001 | [12] 0.017

MRPS25 (UniProt P82663)
inactive: [1] 0.033 | [2] -0.009 | [3] 0.085 | [4] 0.078 | Nexturastat A 0.012 | vemurafenib -0.089 | [5] 0.078 | [6] -0.082 | givinostat 0.049 | barasertib -0.02 | [7] 0.031 | volasertib -0.057 | [8] 0.145 | epoxomicin -0.126 | [9] -0.295 | [10] -0.056 | [11] 0.074 | [12] 0.036

MRPS18B (UniProt Q9Y676)
inactive: [1] -0.036 | [2] -0.165 | [3] -0.08 | [4] 0.009 | Nexturastat A 0.031 | vemurafenib -0.074 | [5] 0 | [6] -0.081 | givinostat 0.075 | barasertib -0.017 | [7] 0.028 | volasertib -0.039 | [8] 0.09 | epoxomicin 0.042 | [9] -0.021 | [10] 0.041 | [11] -0.01 | [12] -0.087

MRPS5 (UniProt P82675)
inactive: [1] 0.08 | [2] -0.086 | [3] -0.005 | [4] 0.004 | Nexturastat A 0.159 | vemurafenib -0.048 | [5] 0.062 | [6] 0.016 | givinostat 0.013 | barasertib 0.023 | [7] 0.005 | volasertib -0.066 | [8] 0.181 | epoxomicin 0.077 | [9] -0.05 | [10] -0.037 | [11] 0.032 | [12] 0.102

MT-ND4 (UniProt P03905)
active: [9] 0.391
inactive: [1] -0.064 | [2] 0.067 | [3] 0.015 | [4] 0.048 | Nexturastat A -0.155 | vemurafenib 0.004 | [5] 0.016 | [6] 0.014 | givinostat 0.058 | barasertib 0.156 | [7] 0 | volasertib -0.102 | [8] -0.028 | epoxomicin 0 | [10] -0.025 | [11] -0.065 | [12] 0.029
